# The supplement of paper PMC10032668
# The chains behind the UniProt entries cited, without tags or fusion partners.
# SRSF9, Q13242, UniProt Q13242, whole entry: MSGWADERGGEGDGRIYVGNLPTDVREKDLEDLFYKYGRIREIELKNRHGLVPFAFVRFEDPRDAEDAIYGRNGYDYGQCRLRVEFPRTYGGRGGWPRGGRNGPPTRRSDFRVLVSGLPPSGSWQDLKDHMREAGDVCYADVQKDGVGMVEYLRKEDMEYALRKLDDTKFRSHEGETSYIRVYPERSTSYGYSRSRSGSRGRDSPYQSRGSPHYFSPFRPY
# KPNA4, O00629, UniProt O00629, whole entry: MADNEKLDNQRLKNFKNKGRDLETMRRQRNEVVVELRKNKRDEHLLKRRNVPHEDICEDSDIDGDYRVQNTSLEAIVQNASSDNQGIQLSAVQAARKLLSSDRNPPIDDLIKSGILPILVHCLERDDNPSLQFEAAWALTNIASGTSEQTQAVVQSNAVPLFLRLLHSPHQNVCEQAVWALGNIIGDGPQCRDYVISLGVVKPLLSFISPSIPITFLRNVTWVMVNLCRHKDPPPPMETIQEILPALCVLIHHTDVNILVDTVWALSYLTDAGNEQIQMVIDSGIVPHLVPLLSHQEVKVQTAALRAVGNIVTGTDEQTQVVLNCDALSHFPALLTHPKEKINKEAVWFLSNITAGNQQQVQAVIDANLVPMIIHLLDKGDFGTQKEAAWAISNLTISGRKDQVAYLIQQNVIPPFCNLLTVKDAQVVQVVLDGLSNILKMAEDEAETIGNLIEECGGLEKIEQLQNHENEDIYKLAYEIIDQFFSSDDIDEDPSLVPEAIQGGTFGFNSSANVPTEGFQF
# TUBB8, Q3ZCM7, UniProt Q3ZCM7, whole entry: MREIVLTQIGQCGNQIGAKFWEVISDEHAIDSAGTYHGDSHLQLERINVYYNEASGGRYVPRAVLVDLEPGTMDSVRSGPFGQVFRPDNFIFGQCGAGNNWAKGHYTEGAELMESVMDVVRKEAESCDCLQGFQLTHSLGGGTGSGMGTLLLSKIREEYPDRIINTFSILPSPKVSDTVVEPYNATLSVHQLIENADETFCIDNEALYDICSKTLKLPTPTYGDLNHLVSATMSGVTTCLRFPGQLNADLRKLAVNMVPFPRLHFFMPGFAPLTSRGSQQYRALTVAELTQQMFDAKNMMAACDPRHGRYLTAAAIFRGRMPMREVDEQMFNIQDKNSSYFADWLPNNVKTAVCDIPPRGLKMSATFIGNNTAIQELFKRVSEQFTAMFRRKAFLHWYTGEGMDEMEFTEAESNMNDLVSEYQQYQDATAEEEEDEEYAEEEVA
# ± gives the standard deviation of the averaged measurements. The list shows a part of the results. The list holds hits alone, and they repeat only in part.
# Columns and labels:
# Assay in all cases: PRISMA enrichment of interactor (LFQ) in peptide spot vs all other peptide spots (log2 fold change); higher = stronger / more specific binding of the interactor to the peptide
# ANP32B, Q92688 = biological target: ANP32B, Q92688
# Method: (§1)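 PRISMA: 221 full-length sORF-encoded peptides (3-15 aa), plus SOS1/GLUT1 control peptides, were spot-synthesized on cellulose membranes in triplicate. Membranes were incubated with HEK293T lysate, and bound proteins were identified by LC-MS/MS with LFQ. Enrichment is the log2 fold change versus all other peptide spots; only significant interactors are listed (cutoff c=6, x0=2.8).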
# ANP32E, Q9BTT0 = biological target: ANP32E, Q9BTT0
# Method: as §1
# CDC42EP1, Q00587 = biological target: CDC42EP1, Q00587
# Method: as §1
# GC, P02774 = biological target: GC, P02774
# Method: as §1
# NAP1L1, P55209 = biological target: NAP1L1, P55209
# Method: as §1
# ORC5, O43913 = biological target: ORC5, O43913
# Method: as §1
# DAP3, P51398 = biological target: DAP3, P51398
# Method: as §1
# DDX21, Q9NR30 = biological target: DDX21, Q9NR30
# Method: as §1
# HTATSF1, O43719 = biological target: HTATSF1, O43719
# Method: as §1
# LARP7, Q4G0J3 = biological target: LARP7, Q4G0J3
# Method: as §1
# MRPL10, Q7Z7H8 = biological target: MRPL10, Q7Z7H8
# Method: as §1
# MRPL11, Q9Y3B7 = biological target: MRPL11, Q9Y3B7
# Method: as §1
# MRPL15, Q9P015 = biological target: MRPL15, Q9P015
# Method: as §1
# MRPL39, Q9NYK5 = biological target: MRPL39, Q9NYK5
# Method: as §1
# MRPL9, Q9BYD2 = biological target: MRPL9, Q9BYD2
# Method: as §1
# MRPS14, O60783 = biological target: MRPS14, O60783
# Method: as §1
# MRPS26, Q9BYN8 = biological target: MRPS26, Q9BYN8
# Method: as §1
# MRPS34, P82930 = biological target: MRPS34, P82930
# Method: as §1
# MRPS35, P82673 = biological target: MRPS35, P82673
# Method: as §1
# MRPS5, P82675 = biological target: MRPS5, P82675
# Method: as §1
# NAP1L4, Q99733 = biological target: NAP1L4, Q99733
# Method: as §1
# PPM1G, O15355 = biological target: PPM1G, O15355
# Method: as §1
# PTCD3, Q96EY7 = biological target: PTCD3, Q96EY7
# Method: as §1
# RPLP1, P05386 = biological target: RPLP1, P05386
# Method: as §1
# SRP19, P09132 = biological target: SRP19, P09132
# Method: as §1
# SRSF5, Q13243 = biological target: SRSF5, Q13243
# Method: as §1
# SRSF9, Q13242 = biological target: SRSF9, Q13242
# Method: as §1
# SSRP1, Q08945 = biological target: SSRP1, Q08945
# Method: as §1
# SUPT5H, O00267 = biological target: SUPT5H, O00267
# Method: as §1
# VCP, P55072 = biological target: VCP, P55072
# Method: as §1
# ZC3H18, Q86VM9 = biological target: ZC3H18, Q86VM9
# Method: as §1
# hCG_1984214 = biological target: hCG_1984214
# Method: as §1
# INTS3, Q68E01 = biological target: INTS3, Q68E01
# Method: as §1
# KPNA4, O00629 = biological target: KPNA4, O00629
# Method: as §1
# LARP1, Q6PKG0 = biological target: LARP1, Q6PKG0
# Method: as §1
# MRPL37, Q9BZE1 = biological target: MRPL37, Q9BZE1
# Method: as §1
# MRPS25, P82663 = biological target: MRPS25, P82663
# Method: as §1
# MRPS28, Q9Y2Q9 = biological target: MRPS28, Q9Y2Q9
# Method: as §1
# MRPS31, Q92665 = biological target: MRPS31, Q92665
# Method: as §1
# NDUFAB1, O14561 = biological target: NDUFAB1, O14561
# Method: as §1
# NOB1, Q9ULX3 = biological target: NOB1, Q9ULX3
# Method: as §1
# RO60, P10155 = biological target: RO60, P10155
# Method: as §1
# TUBB8, Q3ZCM7 = biological target: TUBB8, Q3ZCM7
# Method: as §1
binder,measurement,setting,value
MNLKSAAVKHRRL [ZFAND6],PRISMA enrichment of interactor (log2),"ANP32B, Q92688",6.81
same,PRISMA enrichment of interactor (log2),"ANP32E, Q9BTT0",5.84
same,PRISMA enrichment of interactor (log2),"CDC42EP1, Q00587",4.88
same,PRISMA enrichment of interactor (log2),"GC, P02774",4.05
same,PRISMA enrichment of interactor (log2),"NAP1L1, P55209",5.22
same,PRISMA enrichment of interactor (log2),"ORC5, O43913",6.22
MTSGRMRGR [ZNF677],PRISMA enrichment of interactor (log2),"ANP32B, Q92688",6.72
same,PRISMA enrichment of interactor (log2),"ANP32E, Q9BTT0",7
same,PRISMA enrichment of interactor (log2),"DAP3, P51398",5.94
same,PRISMA enrichment of interactor (log2),"DDX21, Q9NR30",5.69
same,PRISMA enrichment of interactor (log2),"HTATSF1, O43719",6.02
same,PRISMA enrichment of interactor (log2),"LARP7, Q4G0J3",4.88
same,PRISMA enrichment of interactor (log2),"MRPL10, Q7Z7H8",5.39
same,PRISMA enrichment of interactor (log2),"MRPL11, Q9Y3B7",4.82
same,PRISMA enrichment of interactor (log2),"MRPL15, Q9P015",5.16
same,PRISMA enrichment of interactor (log2),"MRPL39, Q9NYK5",5.79
same,PRISMA enrichment of interactor (log2),"MRPL9, Q9BYD2",5.9
same,PRISMA enrichment of interactor (log2),"MRPS14, O60783",4.64
same,PRISMA enrichment of interactor (log2),"MRPS26, Q9BYN8",5.07
same,PRISMA enrichment of interactor (log2),"MRPS34, P82930",5.25
same,PRISMA enrichment of interactor (log2),"MRPS35, P82673",5.4
same,PRISMA enrichment of interactor (log2),"MRPS5, P82675",5.17
same,PRISMA enrichment of interactor (log2),"NAP1L1, P55209",7 ± 0.45
same,PRISMA enrichment of interactor (log2),"NAP1L4, Q99733",6.05
same,PRISMA enrichment of interactor (log2),"PPM1G, O15355",5.63
same,PRISMA enrichment of interactor (log2),"PTCD3, Q96EY7",6.2
same,PRISMA enrichment of interactor (log2),"RPLP1, P05386",6.27
same,PRISMA enrichment of interactor (log2),"SRP19, P09132",4.83
same,PRISMA enrichment of interactor (log2),"SRSF5, Q13243",5.11
same,PRISMA enrichment of interactor (log2),"SRSF9, Q13242",5.73
same,PRISMA enrichment of interactor (log2),"SSRP1, Q08945",5.15
same,PRISMA enrichment of interactor (log2),"SUPT5H, O00267",5.06
same,PRISMA enrichment of interactor (log2),"VCP, P55072",5.15
same,PRISMA enrichment of interactor (log2),"ZC3H18, Q86VM9",5.23
same,PRISMA enrichment of interactor (log2),hCG_1984214,4.78
MRAQRTQGRWRRR [MGAT2],PRISMA enrichment of interactor (log2),"ANP32B, Q92688",6.34
same,PRISMA enrichment of interactor (log2),"ANP32E, Q9BTT0",5.97
same,PRISMA enrichment of interactor (log2),"DAP3, P51398",5.28
same,PRISMA enrichment of interactor (log2),"INTS3, Q68E01",4.1
same,PRISMA enrichment of interactor (log2),"KPNA4, O00629",5.22
same,PRISMA enrichment of interactor (log2),"LARP1, Q6PKG0",5.79
same,PRISMA enrichment of interactor (log2),"MRPL10, Q7Z7H8",5.6
same,PRISMA enrichment of interactor (log2),"MRPL37, Q9BZE1",5
same,PRISMA enrichment of interactor (log2),"MRPL39, Q9NYK5",5.77
same,PRISMA enrichment of interactor (log2),"MRPL9, Q9BYD2",5.32
same,PRISMA enrichment of interactor (log2),"MRPS25, P82663",5.45
same,PRISMA enrichment of interactor (log2),"MRPS28, Q9Y2Q9",5.08
same,PRISMA enrichment of interactor (log2),"MRPS31, Q92665",6.08
same,PRISMA enrichment of interactor (log2),"MRPS34, P82930",5.41
same,PRISMA enrichment of interactor (log2),"MRPS35, P82673",5.95
same,PRISMA enrichment of interactor (log2),"NAP1L1, P55209",6.35 ± 1.1
same,PRISMA enrichment of interactor (log2),"NAP1L4, Q99733",6.17
same,PRISMA enrichment of interactor (log2),"NDUFAB1, O14561",4.41
same,PRISMA enrichment of interactor (log2),"NOB1, Q9ULX3",4.94
same,PRISMA enrichment of interactor (log2),"PPM1G, O15355",5.37
same,PRISMA enrichment of interactor (log2),"PTCD3, Q96EY7",5.57
same,PRISMA enrichment of interactor (log2),"RO60, P10155",4.59
same,PRISMA enrichment of interactor (log2),"TUBB8, Q3ZCM7",5.37

# Rewritten with tabs: part of the list above.
binder	measurement	setting	value
MRAQRTQGRWRRR [MGAT2]	PRISMA enrichment of interactor (log2)	ANP32E, Q9BTT0	5.97
same	PRISMA enrichment of interactor (log2)	DAP3, P51398	5.28
same	PRISMA enrichment of interactor (log2)	INTS3, Q68E01	4.1
same	PRISMA enrichment of interactor (log2)	KPNA4, O00629	5.22
same	PRISMA enrichment of interactor (log2)	LARP1, Q6PKG0	5.79
same	PRISMA enrichment of interactor (log2)	MRPL10, Q7Z7H8	5.6
same	PRISMA enrichment of interactor (log2)	MRPL37, Q9BZE1	5
same	PRISMA enrichment of interactor (log2)	MRPL39, Q9NYK5	5.77
same	PRISMA enrichment of interactor (log2)	MRPL9, Q9BYD2	5.32
same	PRISMA enrichment of interactor (log2)	MRPS25, P82663	5.45
same	PRISMA enrichment of interactor (log2)	MRPS28, Q9Y2Q9	5.08
